± gives the standard deviation of the averaged measurements. The entries are a selection whose mix differs from that of the whole data set. Most values lie at the level of the controls, where differences are scatter.

Chains of the proteins cited; added tags and fusions are not shown. Lines headed by an entry give the natural chain unless they say otherwise; changes in a name come on top.
UniProt Q8N9N5: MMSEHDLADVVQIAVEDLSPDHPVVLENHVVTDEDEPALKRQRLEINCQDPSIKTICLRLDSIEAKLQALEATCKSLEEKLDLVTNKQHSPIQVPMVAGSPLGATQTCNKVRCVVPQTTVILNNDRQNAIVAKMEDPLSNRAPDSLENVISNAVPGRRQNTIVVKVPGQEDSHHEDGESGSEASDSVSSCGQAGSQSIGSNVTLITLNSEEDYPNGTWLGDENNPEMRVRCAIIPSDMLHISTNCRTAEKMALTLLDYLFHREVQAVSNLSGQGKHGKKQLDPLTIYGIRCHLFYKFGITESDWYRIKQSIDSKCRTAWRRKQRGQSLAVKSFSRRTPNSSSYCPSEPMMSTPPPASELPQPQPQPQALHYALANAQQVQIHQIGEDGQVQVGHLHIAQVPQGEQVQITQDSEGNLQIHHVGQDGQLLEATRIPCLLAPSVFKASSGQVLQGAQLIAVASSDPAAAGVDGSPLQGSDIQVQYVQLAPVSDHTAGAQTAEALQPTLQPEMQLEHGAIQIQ
UniProt Q86V48: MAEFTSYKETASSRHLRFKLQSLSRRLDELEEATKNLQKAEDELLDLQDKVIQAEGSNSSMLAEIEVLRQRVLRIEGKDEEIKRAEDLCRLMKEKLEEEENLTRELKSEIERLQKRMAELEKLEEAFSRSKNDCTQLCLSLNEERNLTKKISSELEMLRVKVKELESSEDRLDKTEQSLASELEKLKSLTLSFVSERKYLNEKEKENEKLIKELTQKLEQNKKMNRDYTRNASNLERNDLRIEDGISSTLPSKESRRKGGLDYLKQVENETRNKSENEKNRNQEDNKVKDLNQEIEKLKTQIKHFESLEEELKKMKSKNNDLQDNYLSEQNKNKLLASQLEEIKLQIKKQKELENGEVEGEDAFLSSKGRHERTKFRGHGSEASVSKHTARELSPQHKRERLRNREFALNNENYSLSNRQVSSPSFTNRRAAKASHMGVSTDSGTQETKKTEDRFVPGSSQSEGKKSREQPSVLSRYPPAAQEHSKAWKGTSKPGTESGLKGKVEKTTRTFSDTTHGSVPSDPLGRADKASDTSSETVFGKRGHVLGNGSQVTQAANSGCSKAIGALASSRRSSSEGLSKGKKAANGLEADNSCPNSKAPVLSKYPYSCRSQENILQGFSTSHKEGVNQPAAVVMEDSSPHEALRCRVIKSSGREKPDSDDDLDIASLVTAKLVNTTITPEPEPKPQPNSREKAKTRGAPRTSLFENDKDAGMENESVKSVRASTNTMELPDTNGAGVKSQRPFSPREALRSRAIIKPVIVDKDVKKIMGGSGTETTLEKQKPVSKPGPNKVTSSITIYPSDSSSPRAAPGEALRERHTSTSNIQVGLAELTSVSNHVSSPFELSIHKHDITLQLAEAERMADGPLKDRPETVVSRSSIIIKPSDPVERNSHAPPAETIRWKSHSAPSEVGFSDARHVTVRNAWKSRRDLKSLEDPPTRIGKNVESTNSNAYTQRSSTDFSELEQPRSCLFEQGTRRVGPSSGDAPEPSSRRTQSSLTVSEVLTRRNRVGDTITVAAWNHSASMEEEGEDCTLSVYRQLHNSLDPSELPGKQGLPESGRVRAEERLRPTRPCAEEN
UniProt Q86UK7: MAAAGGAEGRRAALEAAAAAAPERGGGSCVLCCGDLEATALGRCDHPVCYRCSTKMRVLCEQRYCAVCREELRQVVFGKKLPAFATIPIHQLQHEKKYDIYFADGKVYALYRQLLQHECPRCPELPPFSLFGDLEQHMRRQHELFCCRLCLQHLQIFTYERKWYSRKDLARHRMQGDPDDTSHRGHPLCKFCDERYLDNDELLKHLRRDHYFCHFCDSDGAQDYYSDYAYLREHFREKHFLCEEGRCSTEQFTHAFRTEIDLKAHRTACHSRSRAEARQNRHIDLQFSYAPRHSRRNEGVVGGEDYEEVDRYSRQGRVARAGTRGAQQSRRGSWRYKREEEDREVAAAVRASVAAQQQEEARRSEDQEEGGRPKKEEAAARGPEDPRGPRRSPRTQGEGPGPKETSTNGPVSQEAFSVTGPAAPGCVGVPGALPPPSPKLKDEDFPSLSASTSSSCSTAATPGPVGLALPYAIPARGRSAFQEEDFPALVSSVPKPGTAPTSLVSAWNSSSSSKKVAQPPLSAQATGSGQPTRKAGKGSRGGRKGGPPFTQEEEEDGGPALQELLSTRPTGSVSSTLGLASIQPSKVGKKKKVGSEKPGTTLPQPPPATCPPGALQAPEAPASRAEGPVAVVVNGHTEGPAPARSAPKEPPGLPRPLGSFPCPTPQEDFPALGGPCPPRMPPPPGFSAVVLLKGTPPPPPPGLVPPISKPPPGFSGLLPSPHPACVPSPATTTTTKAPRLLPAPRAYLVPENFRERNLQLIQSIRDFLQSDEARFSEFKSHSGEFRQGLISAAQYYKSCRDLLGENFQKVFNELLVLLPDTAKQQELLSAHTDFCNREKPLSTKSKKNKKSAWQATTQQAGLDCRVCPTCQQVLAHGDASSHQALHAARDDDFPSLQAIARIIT
UniProt Q8NAV1: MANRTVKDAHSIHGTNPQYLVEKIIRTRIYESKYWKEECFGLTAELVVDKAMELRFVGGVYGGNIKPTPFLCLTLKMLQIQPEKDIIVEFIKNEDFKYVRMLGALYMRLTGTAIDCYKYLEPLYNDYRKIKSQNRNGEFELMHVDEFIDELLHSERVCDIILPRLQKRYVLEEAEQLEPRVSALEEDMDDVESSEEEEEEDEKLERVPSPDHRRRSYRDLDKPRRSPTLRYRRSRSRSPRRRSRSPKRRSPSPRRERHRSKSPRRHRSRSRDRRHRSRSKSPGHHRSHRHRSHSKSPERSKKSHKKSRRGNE
UniProt Q8IXT5: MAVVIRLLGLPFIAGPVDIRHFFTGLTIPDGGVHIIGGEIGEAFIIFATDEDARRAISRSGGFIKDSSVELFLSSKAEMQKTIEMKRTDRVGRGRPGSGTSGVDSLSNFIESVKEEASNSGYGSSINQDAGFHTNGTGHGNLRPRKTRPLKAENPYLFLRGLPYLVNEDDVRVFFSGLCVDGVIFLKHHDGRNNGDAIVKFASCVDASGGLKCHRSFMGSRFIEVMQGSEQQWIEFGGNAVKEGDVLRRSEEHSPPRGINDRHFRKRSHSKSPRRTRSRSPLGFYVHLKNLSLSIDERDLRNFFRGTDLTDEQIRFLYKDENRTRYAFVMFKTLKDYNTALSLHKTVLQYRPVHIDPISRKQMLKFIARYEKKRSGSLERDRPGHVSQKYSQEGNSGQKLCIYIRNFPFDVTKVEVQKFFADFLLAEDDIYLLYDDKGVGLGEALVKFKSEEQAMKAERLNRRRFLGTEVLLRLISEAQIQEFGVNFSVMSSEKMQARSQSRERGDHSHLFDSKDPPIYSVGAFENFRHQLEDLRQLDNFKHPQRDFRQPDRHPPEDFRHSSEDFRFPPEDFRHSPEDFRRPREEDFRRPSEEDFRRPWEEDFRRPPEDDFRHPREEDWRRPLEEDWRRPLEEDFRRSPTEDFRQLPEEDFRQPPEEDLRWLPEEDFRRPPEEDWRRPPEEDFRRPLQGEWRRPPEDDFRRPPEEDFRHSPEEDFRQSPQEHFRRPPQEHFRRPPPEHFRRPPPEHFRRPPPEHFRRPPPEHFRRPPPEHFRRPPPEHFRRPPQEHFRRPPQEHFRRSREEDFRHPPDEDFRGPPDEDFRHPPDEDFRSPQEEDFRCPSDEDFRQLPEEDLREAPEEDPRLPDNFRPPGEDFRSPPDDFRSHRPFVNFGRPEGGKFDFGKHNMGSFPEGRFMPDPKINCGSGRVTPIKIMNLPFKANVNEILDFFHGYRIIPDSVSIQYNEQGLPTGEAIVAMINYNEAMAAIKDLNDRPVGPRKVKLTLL
UniProt Q8IXI1, whole entry, looked up: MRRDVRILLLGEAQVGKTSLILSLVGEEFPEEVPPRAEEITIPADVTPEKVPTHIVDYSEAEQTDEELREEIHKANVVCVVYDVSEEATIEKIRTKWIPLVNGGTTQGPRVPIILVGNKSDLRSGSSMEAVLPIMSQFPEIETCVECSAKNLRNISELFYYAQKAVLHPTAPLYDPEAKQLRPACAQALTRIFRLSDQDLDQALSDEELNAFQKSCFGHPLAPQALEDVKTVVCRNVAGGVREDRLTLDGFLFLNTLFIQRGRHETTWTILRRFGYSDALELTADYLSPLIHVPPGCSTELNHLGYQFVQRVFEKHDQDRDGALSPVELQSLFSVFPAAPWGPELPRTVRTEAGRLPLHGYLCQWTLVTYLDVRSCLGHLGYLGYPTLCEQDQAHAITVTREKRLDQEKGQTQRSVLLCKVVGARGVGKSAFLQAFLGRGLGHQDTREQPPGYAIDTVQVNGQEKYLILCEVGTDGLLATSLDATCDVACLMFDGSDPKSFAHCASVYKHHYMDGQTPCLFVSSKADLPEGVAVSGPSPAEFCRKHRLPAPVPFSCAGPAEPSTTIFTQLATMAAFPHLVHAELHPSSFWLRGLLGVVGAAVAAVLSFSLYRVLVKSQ
UniProt Q8NBA8: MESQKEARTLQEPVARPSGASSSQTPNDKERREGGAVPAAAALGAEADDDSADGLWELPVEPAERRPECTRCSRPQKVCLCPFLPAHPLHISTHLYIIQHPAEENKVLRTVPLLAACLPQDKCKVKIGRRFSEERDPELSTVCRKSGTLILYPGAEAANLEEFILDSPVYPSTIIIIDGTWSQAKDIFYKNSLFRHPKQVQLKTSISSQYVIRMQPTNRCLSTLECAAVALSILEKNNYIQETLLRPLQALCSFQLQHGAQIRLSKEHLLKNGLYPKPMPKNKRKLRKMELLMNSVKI
UniProt Q8IW45: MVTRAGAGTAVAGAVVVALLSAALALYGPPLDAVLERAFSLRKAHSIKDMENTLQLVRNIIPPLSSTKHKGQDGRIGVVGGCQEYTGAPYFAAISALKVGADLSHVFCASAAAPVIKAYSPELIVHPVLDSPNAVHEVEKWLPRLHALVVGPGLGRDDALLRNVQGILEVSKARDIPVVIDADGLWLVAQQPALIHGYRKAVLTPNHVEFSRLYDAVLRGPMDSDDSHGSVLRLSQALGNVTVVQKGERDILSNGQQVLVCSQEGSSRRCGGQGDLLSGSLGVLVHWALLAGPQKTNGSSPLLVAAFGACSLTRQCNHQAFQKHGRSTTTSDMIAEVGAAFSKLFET
UniProt Q86T24: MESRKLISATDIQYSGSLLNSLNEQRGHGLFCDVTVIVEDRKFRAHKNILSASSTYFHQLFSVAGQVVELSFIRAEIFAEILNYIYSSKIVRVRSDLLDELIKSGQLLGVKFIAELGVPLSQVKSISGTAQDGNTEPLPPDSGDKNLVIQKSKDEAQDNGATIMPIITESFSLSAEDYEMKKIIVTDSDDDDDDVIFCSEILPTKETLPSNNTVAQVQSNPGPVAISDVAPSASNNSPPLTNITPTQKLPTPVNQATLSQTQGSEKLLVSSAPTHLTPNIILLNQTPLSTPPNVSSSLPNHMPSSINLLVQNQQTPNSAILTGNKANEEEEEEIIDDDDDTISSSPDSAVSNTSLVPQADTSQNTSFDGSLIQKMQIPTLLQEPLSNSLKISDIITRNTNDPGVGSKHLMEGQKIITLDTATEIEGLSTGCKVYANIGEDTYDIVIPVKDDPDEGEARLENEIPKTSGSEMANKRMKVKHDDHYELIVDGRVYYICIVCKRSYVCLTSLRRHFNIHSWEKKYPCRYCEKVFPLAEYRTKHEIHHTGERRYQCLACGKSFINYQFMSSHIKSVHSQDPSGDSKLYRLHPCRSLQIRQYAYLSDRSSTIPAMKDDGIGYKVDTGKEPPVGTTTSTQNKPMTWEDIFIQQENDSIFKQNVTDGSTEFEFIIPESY
UniProt Q86YV9: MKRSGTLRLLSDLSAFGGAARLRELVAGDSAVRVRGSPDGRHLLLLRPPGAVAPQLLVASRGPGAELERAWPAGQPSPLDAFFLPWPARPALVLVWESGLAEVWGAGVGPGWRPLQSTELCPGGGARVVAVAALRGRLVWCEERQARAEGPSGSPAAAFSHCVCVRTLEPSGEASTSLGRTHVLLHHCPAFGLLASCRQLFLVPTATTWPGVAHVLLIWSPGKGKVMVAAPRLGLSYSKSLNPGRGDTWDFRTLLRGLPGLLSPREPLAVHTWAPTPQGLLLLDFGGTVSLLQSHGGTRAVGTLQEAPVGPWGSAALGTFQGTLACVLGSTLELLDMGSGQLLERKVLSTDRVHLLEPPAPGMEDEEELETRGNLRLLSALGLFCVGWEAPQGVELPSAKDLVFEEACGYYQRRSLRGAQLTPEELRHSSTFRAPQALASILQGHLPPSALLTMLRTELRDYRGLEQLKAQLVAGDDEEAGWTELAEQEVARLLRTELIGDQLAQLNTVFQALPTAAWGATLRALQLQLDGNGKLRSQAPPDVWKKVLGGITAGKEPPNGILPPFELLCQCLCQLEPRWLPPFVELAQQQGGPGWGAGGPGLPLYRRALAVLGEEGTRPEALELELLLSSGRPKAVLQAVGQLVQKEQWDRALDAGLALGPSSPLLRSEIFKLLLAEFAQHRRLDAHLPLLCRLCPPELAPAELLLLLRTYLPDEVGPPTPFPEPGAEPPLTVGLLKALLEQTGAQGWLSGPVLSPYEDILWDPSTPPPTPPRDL

Among the data in the supplement of paper PMC6411743 are NP40-soluble protein abundance values, retold here.

Compound in the experiment: Nc1ncnc2c1ncn2[C@@H]1O[C@H](COP(=O)(O)OP(=O)(O)NP(=O)(O)O)[C@@H](O)[C@H]1O [adenylyl imidodiphosphate]
The experiment is described as follows: NP40-soluble protein abundance relative to vehicle (solubility fold change) (ratio); higher = more soluble protein in presence of AMP-PNP. The gist of the method:
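Across three independent experiments, values are fold changes against the detergent-processed vehicle for each replicate, based on vsn-normalised intensities. The samples were Jurkat crude lysate treated with eight concentrations (0.1 to 10 mM) for 10 min at room temperature and then 3 min at 37 °C. Lysate was solubilised with 0.8% NP40 and benzonase, ultracentrifuged, and the supernatant analysed by TMT-labelled LC-MS/MS.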

Regarding UniProt Q8N163, the NP40-soluble protein abundance (concentration: 0.1mM) worked out at 1.03 ± 0.066 and the NP40-soluble protein abundance (concentration: 0.5mM) was 0.971 ± 0.05.
The corresponding values for UniProt Q86U70 and related entries are 0.989 ± 0.019 and 0.967 ± 0.031.
The matching figures for “UniProt Q8N983-4|B1AL05 and related entries”: 1.05 ± 0.016 and 1.02 ± 0.029.
The corresponding values for PCGF5 (UniProt Q86SE9) are 0.958 ± 0.023 and 0.994 ± 0.056.
For VPS52 (UniProt Q8N1B4), the NP40-soluble protein abundance was determined as 0.9829 ± 0.0024 (concentration: 0.1mM) and 0.964 ± 0.053 (concentration: 0.5mM).
The corresponding values for UniProt Q8N5M1 and related entries are 1.02 ± 0.056 and 0.963 ± 0.078.
The corresponding values for UniProt Q8IUX7 are 0.968 ± 0.033 and 0.955 ± 0.01.
The corresponding values for RFLNB (UniProt Q8N5W9) are 1.03 ± 0.032 and 1.01 ± 0.051.
In the case of MICALL1 (UniProt Q8N3F8), the NP40-soluble protein abundance was determined as 0.955 ± 0.016 (concentration: 0.1mM) and 0.968 ± 0.028 (concentration: 0.5mM).
With PLD3 (UniProt Q8IV08), the NP40-soluble protein abundance was found to be 0.962 ± 0.025 (concentration: 0.1mM) and 0.969 ± 0.034 (concentration: 0.5mM).
UniProt Q8N5G2: the NP40-soluble protein abundance is, setting by setting: (concentration: 0.1mM) 0.962 ± 0.043; (concentration: 0.5mM) 0.946 ± 0.04.
The corresponding values for DIS3L2 (UniProt Q8IYB7) are 0.982 ± 0.017 and 0.96 ± 0.016.
The corresponding values for ZNF579 (UniProt Q8NAF0) are 0.9873 ± 0.0028 and 1.01 ± 0.029.
The corresponding values for UniProt Q86TN4 and related entries are 1.03 ± 0.065 and 1.04 ± 0.043.
As for UniProt Q8IWF6, the NP40-soluble protein abundance by setting is: (concentration: 0.1mM) 1.04 ± 0.027; (concentration: 0.5mM) 1.02 ± 0.032.
The corresponding values for PTGR2 (UniProt Q8N8N7) are 0.986 ± 0.018 and 0.988 ± 0.015.
The matching figures for UniProt Q8N9N5 and related entries: 1 ± 0.051 and 0.976 ± 0.026.
The corresponding values for UniProt Q8IZ83 and related entries are 1.02 ± 0.031 and 0.987 ± 0.037.
For UniProt Q86UU1 and related entries, the NP40-soluble protein abundance stood at 0.997 ± 0.01 (concentration: 0.1mM) and 0.999 ± 0.033 (concentration: 0.5mM).
As for UniProt Q86V59 and related entries, the NP40-soluble protein abundance (concentration: 0.1mM) stood at 0.999 ± 0.018 and the NP40-soluble protein abundance (concentration: 0.5mM) was 1.02 ± 0.041.
In the case of UniProt Q86V48 and related entries, the NP40-soluble protein abundance is, setting by setting: (concentration: 0.1mM) 0.98 ± 0.021; (concentration: 0.5mM) 1.02 ± 0.043.
The corresponding values for CKAP2L (UniProt Q8IYA6) are 1.01 ± 0.022 and 0.989 ± 0.022.
The corresponding values for PARG (UniProt Q86W56) are 1.004 ± 0.0026 and 1.03 ± 0.019.
The corresponding values for UniProt Q8IUD2 and related entries are 0.952 ± 0.03 and 0.969 ± 0.03.
On to UniProt Q86YS7, for which the NP40-soluble protein abundance amounted to 0.978 ± 0.042 (concentration: 0.1mM) and 0.9707 ± 0.0077 (concentration: 0.5mM).
The corresponding values for UniProt Q86YC3 are 0.964 ± 0.023 and 0.983 ± 0.012.
Take UniProt Q86X76 and related entries: the NP40-soluble protein abundance reads like this: (concentration: 0.1mM) 1.04 ± 0.051; (concentration: 0.5mM) 1.05 ± 0.07.
Turning to UniProt Q86UK7 and related entries, the NP40-soluble protein abundance (concentration: 0.1mM) came to 1.03 ± 0.021 and the NP40-soluble protein abundance (concentration: 0.5mM) was found to be 1 ± 0.023.
The corresponding values for UniProt Q8N6G5 and related entries are 0.952 ± 0.084 and 0.955 ± 0.022.
The matching figures for PRPF38A (UniProt Q8NAV1): 1.007 ± 0.0069 and 1 ± 0.013.
The matching figures for UniProt Q8N0Z3: 0.9721 ± 0.0014 and 0.98227 ± 0.00073.
For the target RBM12B (UniProt Q8IXT5), the NP40-soluble protein abundance (concentration: 0.1mM) was found to be 1.005 ± 0.0017 and the NP40-soluble protein abundance (concentration: 0.5mM) was 0.994 ± 0.033.
The corresponding values for TSPYL5 (UniProt Q86VY4) are 0.986 ± 0.019 and 1.03 ± 0.037.
Consider RHOT2 (UniProt Q8IXI1), for which the NP40-soluble protein abundance is 1.009 ± 0.0039 (concentration: 0.1mM) and 1 ± 0.017 (concentration: 0.5mM).
For the target DTWD2 (UniProt Q8NBA8), the NP40-soluble protein abundance is, setting by setting: (concentration: 0.1mM) 1.03 ± 0.034; (concentration: 0.5mM) 1.03 ± 0.034.
For UniProt Q8N9M1 and related entries, the NP40-soluble protein abundance is 0.997 ± 0.03 (concentration: 0.1mM) and 0.989 ± 0.04 (concentration: 0.5mM).
As for UniProt Q7Z7K6 and related entries, the NP40-soluble protein abundance is, setting by setting: (concentration: 0.1mM) 1.04 ± 0.026; (concentration: 0.5mM) 1.05 ± 0.013.
CISD2 (UniProt Q8N5K1): the NP40-soluble protein abundance reads like this: (concentration: 0.1mM) 1.032 ± 0.0039; (concentration: 0.5mM) 0.991 ± 0.027.
The corresponding values for CCDC25 (UniProt Q86WR0) are 0.982 ± 0.029 and 1.02 ± 0.027.
The corresponding values for UniProt Q8N5Y8 and related entries are 1.03 ± 0.028 and 1.02 ± 0.03.
The matching figures for UniProt Q86UY6: 1.01 ± 0.039 and 1.01 ± 0.053.
With UniProt Q8IW45, the NP40-soluble protein abundance was 1 ± 0.015 (concentration: 0.1mM) and 0.984 ± 0.04 (concentration: 0.5mM).
The corresponding values for ANKMY2 (UniProt Q8IV38) are 0.9686 ± 0.0057 and 1 ± 0.034.
The matching figures for ZBTB33 (UniProt Q86T24): 0.987 ± 0.024 and 0.974 ± 0.041.
The matching figures for UniProt Q8N128 and related entries: 1 ± 0.047 and 1.02 ± 0.023.
UniProt Q8N4N3 and related entries: the NP40-soluble protein abundance was determined as 1.01 ± 0.043 (concentration: 0.1mM) and 0.968 ± 0.019 (concentration: 0.5mM).
The corresponding values for GALNT7 (UniProt Q86SF2) are 1 ± 0.044 and 0.978 ± 0.052.
For HPS6 (UniProt Q86YV9), the NP40-soluble protein abundance (concentration: 0.1mM) was 1 ± 0.02 and the NP40-soluble protein abundance (concentration: 0.5mM) is 1 ± 0.017.
The matching figures for UniProt Q8IZH2 and related entries: 1.01 ± 0.032 and 0.982 ± 0.033.
For the target UniProt Q8IZM8, the NP40-soluble protein abundance (concentration: 0.1mM) was found to be 1 ± 0.029 and the NP40-soluble protein abundance (concentration: 0.5mM) turned out to be 0.998 ± 0.037.
For the target UniProt Q86UA6 and related entries, the NP40-soluble protein abundance (concentration: 0.1mM) is 0.9817 ± 0.005 and the NP40-soluble protein abundance (concentration: 0.5mM) was 0.989 ± 0.015.
The matching figures for ERI1 (UniProt Q8IV48): 0.977 ± 0.045 and 0.97 ± 0.092.
The corresponding values for UniProt Q8IUI8 and related entries are 1.011 ± 0.0072 and 1.01 ± 0.012.
On to UniProt Q8N2F6 and related entries, for which the NP40-soluble protein abundance by setting is: (concentration: 0.1mM) 0.977 ± 0.06; (concentration: 0.5mM) 1.02 ± 0.055.
The corresponding values for ARL6IP6 (UniProt Q8N6S5) are 1 ± 0.063 and 0.987 ± 0.057.
The corresponding values for UniProt Q86W42 and related entries are 1.15 ± 0.078 and 1.18 ± 0.029.
As to UniProt Q7Z6E9 and related entries, the NP40-soluble protein abundance (concentration: 0.1mM) is 0.997 ± 0.028 and the NP40-soluble protein abundance (concentration: 0.5mM) was determined as 1.05 ± 0.056.
The corresponding values for UniProt Q8IY95 and related entries are 0.989 ± 0.034 and 1 ± 0.027.
As to UniProt Q8IY63 and related entries, the NP40-soluble protein abundance (concentration: 0.1mM) is 1 ± 0.043 and the NP40-soluble protein abundance (concentration: 0.5mM) was found to be 1.04 ± 0.042.
The matching figures for UniProt Q86TB9 and related entries: 1 ± 0.016 and 1.03 ± 0.043.
The corresponding values for SMG6 (UniProt Q86US8) are 1.03 ± 0.031 and 0.983 ± 0.057.
